Source: patent US6497872B1, “Neural transplantation using proliferated multipotent neural stem cells and their progeny” (NeuroSpheres Holdings Ltd., priority 1991, dated 2002)
At least one structure is not confirmed: it was looked up by name or label, or the drawing left a doubt.

Experiments:
Primary striatal cells = test: Striatum-derived neurosphere proliferation in response to proliferative and regulatory factors (Example 43, Paradigm 1); type: cell-based, mouse; settings: in all of the proliferative factors or combinations tested
Protocol: Paradigm 1: Primary striatal cells prepared as outlined in Example 1 were suspended in Complete Medium, without growth factors, plated in 96 well plates (Nunclon) and incubated as described in Example 4. Following a one hour incubation period, a specific proliferative factor, or a combination of proliferative factors including EGF, or bFGF (recombinant human bFGF: R & D Systems), or a combination of EGF and bFGF, or EGF plus FGF plus heparan sulfate (Sigma), or bFGF plus heparan sulfate made up in Complete Medium at a concentration of 20 ng/ml for each of the growth factors and 2 μg/ml for heparan sulfate), was added to each well of the plate.
Retinoic acid (Sigma) was added at a concentration of 10^−6 M. 10 μl of one of these regulatory factor-containing solutions was added to each proliferative factor-containing well of the 96 well plates. Control wells, containing only proliferative factors, were also prepared. […]
IL-2, IL-6, IL-8, MIP-1∂, MIP-1β, MIP-2, TNFα and EGF additions were repeated every second day, CNTF which was added each day and retinoic acid, NGF and PDGF were added only once, at the beginning of the experiment. The cells were incubated for a period of 10-12 days. The number of neurospheres in each well was counted and the resulting counts tabulated using Cricket Graph III. Other relevant information regarding sphere size and shape were also noted.

[1] = test system: EGF-generated neurospheres; test: Effect of growth factors on neurosphere differentiation, immunocytochemistry (Example 8); type: cell-based, mouse; settings: paradigm 1; 10^−7M
Protocol: Six to 8 days after the first passage, the neurospheres were removed and centrifuged at 400 r.p.m. The EGF-containing supernatant was removed and the pellet suspended in EGF-free complete medium containing 1% FBS. Neurospheres (approximately 0.5-1.0×10^6 cells/well) were plated on poly-L-ornithine-coated (15 μg/ml) glass coverslips in 24 well Nuclon (1.0 ml/well) culture dishes. After 24 hours in culture, the coverslips were transferred to 12 well (Costar) culture dishes containing complete medium containing 0.5% FBS. The medium was changed every 4-7 days. This differentiation procedure is referred to as the “Rapid Differentiation Paradigm” or RDP.
Six to 8 days after the first passage, the neurospheres were removed and centrifuged at 400 r.p.m. The EGF-containing media was removed and the pellet was suspended in EGF-free complete medium containing 1% FBS. The neurospheres were mechanically dissociated into single cells with a fire-polished Pasteur pipette and centrifuged at 800 r.p.m. for 5 minutes. Between 0.5×10^6 and 1.0×10^6 cells were plated on poly-L-ornithine-coated (15 μg/ml) glass coverslips in 24 well Nuclon (1.0 ml/well) culture dishes. The EGF-free culture medium containing 1% FBS was changed every 4-7 days.
Neurospheres were washed free of EGF by serial transfers through changes of EGF-free medium. […]

SMILES: CC1=C(/C=C/C(C)=C/C=C/C(C)=C/C(=O)O)C(C)(C)CCC1 [Retinoic Acid, retinoic acid, reference compound]
- numbers of neurospheres generated (Primary striatal cells): significantly reduced
- number of NSE(+) cells [1]: increase
- number of tau-1(+) cells [1]: increase
